Results reported in PubChem BioAssay AID1347075 (National Center for Advancing Translational Sciences (NCATS), 2019).
Where “and” joins values, the source holds several entries; their conditions need not be identical. Equal entries are not always repeated. Screen size: about 400,000 compounds; about 5,500 (1.4%) were called active. Inconclusive means that the source gave no clear call. Such entries were picked first, then a sample of the others. Calls come from the whole dose curve; as a rule, active = well fitted cell-killing curve with a large enough effect; inconclusive = small, poorly fitted or top-dose-only effect, or effect the other way; inactive = flat fitted curve, though single readings scatter. Potencies beside an inconclusive call are fits to weak or partial responses and may not hold up.

assay: qHTS assay for MDR1-selective chemotherapeutics: Primary screen using the parental adenocarcinoma cell KB-3-1; details: KB-3-1 viability, CellTiter-Glo ATP luminescence, 72 h; series mostly up to 46.1 µM; note: nearly all actives have a fitted effect of over 60% in size
Procedure, shortened: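 Screening of KB-3-1 cells (DMEM, 10% FBS, phenol-red free) ran from lowest to highest compound concentration; after 72 h at 37 °C viability was read luminescently and curves fitted.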
Potency is the fitted concentration of half-maximal effect.

**Q.** With `Cc1oc(-c2cccs2)nc1CSCC(=O)N1CCC2(CC1)OCCO2` as the compound, how does the Potency read?
**A.** inactive

**Q.** Which Potency does the source give for `Cn1c(O)c(/C=C2\C=c3ccccc3=NC2=O)c(=O)n(C)c1=O` here?
**A.** inactive

**Q.** With `CN1CN(c2ccccc2)C2(CCN(CCCSc3ccccc3NC(=O)/C=C/c3ccccc3)CC2)C1=O` as the compound, how does the Potency read?
**A.** inconclusive: 29.1 µM [cytotoxic, single point]

**Q.** With `N#Cc1cc2c(nc1SCC(=O)Nc1cc(Cl)ccc1Cl)C1CCN2CC1` as the compound, how does the Potency read?
**A.** inconclusive: 29.1 µM [cytotoxic, single point]

**Q.** For `CC(C)COC(=O)N1Cc2ccccc2-n2nncc2C1`, which Potency is on record?
**A.** inconclusive: 23.1 µM [rising, single point]

**Q.** Which Potency does the source give for `C=CCn1c(O)c(C(CC)=NCCc2c[nH]c3ccccc23)c(=O)[nH]c1=O` here?
**A.** inconclusive: 13 µM [cytotoxic, single point]

**Q.** For `CC1CC(OP(O)(=S)c2ccc(N(C)C)cc2NC(=O)c2cccs2)CC(C)(C)C1` (centres undefined), which Potency is on record?
**A.** inconclusive: 29.1 µM [cytotoxic, single point]

**Q.** With `CCN(CC)c1ccc(/C=C/[N+](=O)[O-])cc1` as the compound, how does the Potency read?
**A.** inconclusive: 29.1 µM [cytotoxic, single point]

**Q.** With `CCC(C)(O)C(=O)OC1C(=O)OC2CC3C(C)=CC(=O)C(O)C3(C)C3C4(O)OCC23C1C(C)C4O` (centres undefined) as the compound, how does the Potency read?
**A.** active: 0.291 µM

**Q.** Which Potency does the source give for `CN(Cc1c[nH]c2ccccc12)C1CCCCC1` here?
**A.** inconclusive: 29.1 µM [cytotoxic, single point]

**Q.** For `COc1ccc(C2=CC(c3ccc4c(c3)OCO4)c3c(c4ccccc4oc3=O)O2)cc1OC` (centres undefined), which Potency is on record?
**A.** active: 2.91 µM

**Q.** For `CC(=Nc1c(C)n(C)n(-c2ccccc2)c1=O)c1c(O)n(Cc2ccccc2)c(=O)[nH]c1=O`, which Potency is on record?
**A.** inactive

**Q.** Which Potency does the source give for `COc1ccc(NP(=O)(Nc2ccc(OC)cc2)Oc2ccccc2)cc1` here?
**A.** inconclusive: 11.6 µM [rising, partial curve, poor fit]

**Q.** With `CCN1/C(=C/C=C/C2=[N+](CC)c3ccccc3C2(C)C)C(C)(C)c2ccccc21` as the compound, how does the Potency read?
**A.** active: 0.0065 µM

**Q.** Which Potency does the source give for `CC12CCC3C(CCC4C/C(=N/O)CCC43C)C1CCC2O` (centres undefined) here?
**A.** inconclusive: 23.1 µM [cytotoxic, single point]

**Q.** Which Potency does the source give for `COc1cccc(-n2c(C)nc3ccccc3c2=O)c1` here?
**A.** inactive

**Q.** For `Cc1ccc(CN2C3CCCC2CC(NC(=O)Nc2cccc(F)c2)C3)cc1` (centres undefined), which Potency is on record?
**A.** inconclusive: 20.6 µM [cytotoxic, single point]

**Q.** Which Potency does the source give for `CCCCCC(=O)N[C@@H](c1ccccc1)[C@@H](O)C(=O)O[C@H]1C[C@@]2(O)[C@@H](OC(=O)c3ccccc3)C3[C@](C)(C(=O)[C@H](O)C(=C1C)C2(C)C)[C@@H](OC1OCC(O)C(O)C1O)C[C@H]1OC[C@@]31OC(C)=O` (some centres undefined) here?
**A.** active: 0.206 µM
